PubChem BioAssay AID1259254, NCATS | 2017
Here is a random part of about 59,000 reagents tested. Over the whole deposit, about 1,550 (2.6%) got an active call. 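G2 share is only a proxy for re-replication; each gene was hit by three separate siRNAs, and active genes were retested.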 Raw values are not corrected between plates. A number with no mark means an inactive call. Reagents against one gene are numbered here. No sequences are given here. The record does not give: the amount of reagent.

- Test: 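Genome-wide screen for genes that prevent DNA re-replication in cancer cells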 (primary screen)
- Cell system: human HCT116 colorectal cancer cells
- Knock-down reagent: single siRNA against human genes
- Duration: 3 days
- Measured: 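Nuclei stained with Hoechst and imaged; cell-cycle phase assigned by DNA content; G2 share scaled per plate, non-targeting siRNA 0%, GMNN siRNA 100%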
- Reading the numbers: G2 robust z-score and G2 cells, % of GMNN control: higher = more G2 cells, more excess DNA replication; raw share of cells in G2: higher = larger share of cells with G2 DNA content
- Rule for the call: 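Active siRNAs have a G2 robust z of 5 or more median absolute deviations over the median, which in these data means about 38% or higher of GMNN control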

| target | siRNA no. | G2 robust z-score | G2 cells, % of GMNN control | raw share of cells in G2 (%) |
| --- | --- | --- | --- | --- |
| MPHOSPH6 | 1 | 1.7 | 14.9 | 12.1 |
| MPHOSPH6 | 2 | 1.31 | 12.2 | 9.04 |
| MPHOSPH6 | 3 | 2.99 | 24 | 12.1 |
| HSD17B1 | 1 | 0.375 | 5.61 | 7.08 |
| HSD17B1 | 2 | -1.51 | -7.67 | 2.76 |
| HSD17B1 | 3 | 3.59 | 28.3 | 14.6 |
| MTRF1 | 1 | -0.479 | -0.405 | 5.15 |
| MTRF1 | 2 | -0.972 | -3.87 | 2.33 |
| MTRF1 | 3 | -0.523 | -0.713 | 3.15 |
| GLUL | 1 | 0.0758 | 3.5 | 6.51 |
| GLUL | 2 | 4.02 | 31.2 | 14.8 |
| GLUL | 3 | -0.28 | 1 | 5.64 |
| SLC2A2 | 1 | -1.4 | -6.88 | 3.37 |
| SLC2A2 | 2 | 0.195 | 4.34 | 6.03 |
| SLC2A2 | 3 | -0.391 | 0.213 | 4.03 |
| SPART | 1 | -0.748 | -2.29 | 4.09 |
| SPART | 2 | 0.0722 | 3.48 | 5.57 |
| SPART | 3 | 0.00902 | 3.03 | 4.31 |
| HLA-F | 1 | 1.6 | 14.2 | 12 |
| HLA-F | 2 | 0.451 | 6.14 | 6.34 |
| HLA-F | 3 | 1.59 | 14.2 | 9.07 |
| CEP126 | 1 | -0.698 | -1.95 | 3.58 |
| CEP126 | 2 | 0.212 | 4.46 | 6.59 |
| CEP126 | 3 | -0.46 | -0.268 | 2.94 |
| LYST | 1 | -0.946 | -3.69 | 3.57 |
| LYST | 2 | 1.27 | 11.9 | 8.45 |
| LYST | 3 | 0.172 | 4.18 | 5.16 |
| CSF2RB | 1 | -1.42 | -7.05 | 2.45 |
| CSF2RB | 2 | 1.93 | 16.6 | 11 |
| CSF2RB | 3 | 0.126 | 3.85 | 5.42 |
| UGT2B4 | 1 | -0.794 | -2.62 | 4.49 |
| UGT2B4 | 2 | 5.02 (active) | 38.3 | 17.1 |
| UGT2B4 | 3 | 0.369 | 5.56 | 6.33 |
| AIFM2 | 1 | -0.832 | -2.89 | 4.33 |
| AIFM2 | 2 | -0.995 | -4.04 | 3.23 |
| AIFM2 | 3 | -0.91 | -3.43 | 3.18 |
| SH2D4A | 1 | -0.304 | 0.829 | 4.94 |
| SH2D4A | 2 | 1.74 | 15.2 | 11.4 |
| SH2D4A | 3 | 0.431 | 6 | 4.28 |
| DPM1 | 1 | 0.121 | 3.82 | 6.27 |
| DPM1 | 2 | 3.38 | 26.8 | 14.7 |
| DPM1 | 3 | -0.526 | -0.735 | 4.44 |
| SPARC | 1 | 0.497 | 6.46 | 8 |
| SPARC | 2 | 1.44 | 13.1 | 9.1 |
| SPARC | 3 | 0.275 | 4.9 | 5.08 |
| DNAJA2 | 1 | -0.387 | 0.243 | 3.61 |
| DNAJA2 | 2 | -0.849 | -3.01 | 4.65 |
| DNAJA2 | 3 | 0.819 | 8.73 | 7 |

In a second layout: entries from further up.
target	siRNA no.	G2 robust z-score	G2 cells, % of GMNN control	raw share of cells in G2 (%)
CEP126	3	-0.46	-0.268	2.94
LYST	1	-0.946	-3.69	3.57
LYST	2	1.27	11.9	8.45
LYST	3	0.172	4.18	5.16
CSF2RB	1	-1.42	-7.05	2.45
